Experimental data published in publication PMC5444744, “Interaction between granulin A and enolase 1 attenuates the migration and invasion of human hepatoma cells” (Oncotarget, 2017).
Results are given in words; binding and its absence hold for the method and conditions named. Binding seen in cells or lysates may run through a third protein. Some entries that bind do so weakly or less than the wild type.

Amino acid sequences for entries named in this document (tags omitted). Residues count along the entry.
UniProt P28799, residues 281-336: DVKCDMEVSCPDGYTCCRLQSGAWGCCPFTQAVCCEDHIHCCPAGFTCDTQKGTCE
UniProt P06733: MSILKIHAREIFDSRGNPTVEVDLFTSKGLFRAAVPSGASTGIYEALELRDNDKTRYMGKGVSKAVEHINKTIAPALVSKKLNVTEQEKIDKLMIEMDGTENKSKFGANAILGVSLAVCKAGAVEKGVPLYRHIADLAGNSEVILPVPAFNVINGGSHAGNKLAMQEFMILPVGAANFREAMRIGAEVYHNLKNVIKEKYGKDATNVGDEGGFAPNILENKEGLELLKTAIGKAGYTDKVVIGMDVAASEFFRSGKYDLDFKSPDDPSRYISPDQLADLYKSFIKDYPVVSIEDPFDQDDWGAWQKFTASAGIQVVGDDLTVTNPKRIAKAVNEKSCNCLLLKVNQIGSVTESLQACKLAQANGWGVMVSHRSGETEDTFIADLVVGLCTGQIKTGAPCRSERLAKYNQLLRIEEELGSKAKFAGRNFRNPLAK

Biological target: Granulin A (His-GRN A) (human) (UniProt P28799)
Experiment: pull-down; His-GRN A (100 μg) held on cobalt chelate resin (Pierce polyHis pull-down kit), incubated with crude HepG-2 lysate 4 h at 4°C, 20 mM imidazole, washed with TBS, eluted with 290 mM imidazole; SDS-PAGE with Coomassie, band identified by LC-MS/MS, and Western blot with anti-ENO1; only the target purified

Which binding does the source give for “α-enolase (ENO1), endogenous in HepG-2 cells (from UniProt P06733 1-434) (enzyme)” here?
The binding was “binds”.
